{"source": "patent US7674464B2", "about": "“Intracellular interleukin-1 receptor antagonists” (The University of Tennessee Research Foundation, priority 2004, dated 2010)", "tested_on": "dermal fibroblasts", "test": "uptake and subcellular localisation of 125I-labeled peptide in dermal fibroblasts", "format": "cell-based", "data": [{"sequence": "RPSGRKSSKMQAFRIWDVNQKTFYLRNNQLVAGYL (IL-1ra peptides representing the mature form of human sIL-1ra) [IL-1ra 1-35, synthetic peptide, residues 1-35 of mature human sIL-1ra]", "values": [{"measurement": "uptake by fibroblasts and localisation", "value": "taken up by fibroblasts, and localized to the vesicles, cytosol and nucleus"}, {"measurement": "uptake of the labeled peptide by fibroblasts", "setting": "40 μg 125I peptide, 3 hours at 37° C., fibroblast monolayer", "value": 1.5, "unit": "%"}, {"measurement": "share of recovered cellular CPM localized in the cytosol", "setting": "total CPM 15,032", "value": 34.8, "unit": "%"}, {"measurement": "share of recovered cellular CPM localized in the nucleus", "setting": "total CPM 15,032", "value": 12, "unit": "%"}, {"measurement": "share of recovered cellular CPM localized in the plasma membrane", "setting": "total CPM 15,032", "value": 21.2, "unit": "%"}, {"measurement": "share of recovered cellular CPM localized in vesicles", "setting": "total CPM 15,032", "value": 31.9, "unit": "%"}]}]}
